In this experiment the target is BD-GmVQ58 (soybean (Glycine max)) (UniProt I1M649). The experiment in a line: two-hybrid; Matchmaker Gold Yeast Two-Hybrid System; BD-GmVQ58 (pGBKT7) with AD-GmWRKY32 (pGADT7); double-dropout (-Leu/-Trp) then quadruple-dropout (-Leu/-Trp/-His/-Ade) plates with X-alpha-Gal.

Results are given in words; binding and its absence hold for the method and conditions named. A result given as binding can be weak or reduced; the word gives no strength.

On to AD-GmWRKY32 (from UniProt I1JEC8), for which the binding entry is reported as “binds”.
